The other results are listed elsewhere or left out. These are further read-outs of the screen, such as a control signal, another cell line or another target. No call is given for them. The list favours compounds with an active or inconclusive main result. The note in brackets gives the kind of curve behind each potency; many fits are weak.
Experiment: Cell signaling CRE-BLA (Fsk stim)
Settings: CHO CRE-bla reporter (cAMP response element driving beta-lactamase), forskolin EC10, beta-lactamase ratio; measured here: 460 nm blue channel
In short: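 Reporter-gene assay: CHO cells with beta-lactamase behind cAMP responsive elements, co-treated with compound and EC10 NKH 477 for 3 hours at 37 degrees Celsius. Activity came from the 460/530 nm CCF4 emission ratio.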
With CC(=O)Nc1sc2c(c1C#N)CCCCC2 the AC50 was 10 µM [rising, single point]. For O=C(c1cc2nc(-c3ccco3)cc(C(F)(F)F)n2n1)N1CCc2ccccc2C1, the AC50 was 10 µM [rising, partial curve]. For CCOC(=O)c1cc2sccc2n1CCCN1C(=O)c2ccccc2C1=O, the AC50 was 10 µM [rising, partial curve]. With CCCCOc1ncnc2c1[nH]c1ccc(F)cc12 the AC50 was 10 µM [rising, partial curve]. For O=C(CCN1CCCC1)Nc1cccc(Br)c1, the AC50 was 12.6 µM [falling, partial curve]. In the case of Cn1cnc2c1c(=O)n(Cc1cccc(Br)c1)c(=O)n2C, the AC50 is reported as 25.1 µM [rising, single point]. In the case of Cc1cc(C)n(CCO)c(=O)n1, the AC50 is reported as 2 µM [falling, partial curve]. For COc1ccccc1N1CCN(C(=O)c2cc(-c3cccs3)on2)CC1, the AC50 was 0.126 µM [falling, full curve]. With COc1cccc(C2=NOC(C(=O)NCc3ccco3)C2)c1 (centres undefined) the AC50 was 5.01 µM [falling, single point]. In the case of CCN(CC)P1(=O)OC(c2cc(OC)c(OC)c(OC)c2)=Nc2c1c(C)nn2-c1ccccc1 (centres undefined), the AC50 is reported as 25.1 µM [rising, single point]. In the case of Cc1cc(NC(=O)Cn2c(=O)c3c(ncn3CCC(C)C)n(Cc3ccccc3)c2=O)no1, the AC50 is reported as 5.01 µM [falling, single point]. With N=c1sc2ccccc2n1-c1ccccc1 the AC50 was 12.6 µM [rising, partial curve]. For CN(C)c1ncc2nc(-c3cc(F)cc(F)c3)c(=O)n(CCc3ccccc3)c2n1, the AC50 was 5.01 µM [rising, partial curve]. For C=CCc1cc(C(=O)N2CCCCC2)ccc1O, the AC50 was 7.94 µM [falling, partial curve]. In the case of CCCC1CC(c2csc(N)n2)CCO1 (centres undefined), the AC50 is reported as 12.6 µM [falling, single point]. For CCOC(=O)CC(=O)c1cc(OC)c(OC)c(OC)c1, the AC50 was 5.01 µM [rising, partial curve]. For Oc1ccc(Nc2nc(-c3ccc(O)cc3)cs2)cc1, the AC50 was 15.8 µM [falling, partial curve]. With Cn1nnnc1SCC(=O)Nc1cc(C(C)(C)C)nn1-c1ccccc1 the AC50 was 5.01 µM [falling, single point]. In the case of Cn1c(-c2ccc(C(=O)c3ccccc3)s2)nc2ccccc21, the AC50 is reported as 2 µM [rising, full curve]. In the case of COc1cc(NC(=O)c2cccc(Cl)c2)c(OC)cc1NC(=O)CN1CCOCC1, the AC50 is reported as 5.01 µM [rising, full curve]. For CCOC(=O)C(NC(=O)CC)(Nc1ccc(S(=O)(=O)Nc2cc(C)on2)cc1)C(F)(F)F (centres undefined), the AC50 was 25.1 µM [rising, single point]. For COCCNC(=O)COc1ccc(C)c(C)c1, the AC50 was 0.631 µM [falling, full curve, poor fit]. In the case of Cc1nn(-c2ccccc2)c2c1C(O)n1c(nc3ccccc31)S2 (centres undefined), the AC50 is reported as 5.01 µM [falling, single point]. For CCCS(=O)(=O)N1CCC(C(=O)NCCN(C)Cc2ccccc2)CC1, the AC50 was 0.00398 µM [falling, full curve, poor fit]. For CC(=O)c1cc(-c2ccc(F)cc2)n(CC(=O)NCc2cccs2)c1C, the AC50 was 2.51 µM [falling, full curve]. In the case of CCCC1=C(C(=O)OCC)C(c2ccc(N(C)C)cc2)n2ncnc2N1 (centres undefined), the AC50 is reported as 15.8 µM [rising, partial curve]. In the case of O=C(/C=N/O)NCc1ccncc1, the AC50 is reported as 12.6 µM [falling, partial curve, poor fit]. With NC(=O)c1oc2ccccc2c1NC(=O)c1ccc(F)cc1 the AC50 was 3.16 µM [rising, partial curve]. In the case of O=C(CN1CCN(c2ccccn2)CC1)Nc1ccc(Oc2ccccc2)cc1, the AC50 is reported as 0.0158 µM [falling, full curve]. With O=C1C(=O)c2ccccc2C(O)=C1C(CCc1ccccc1)C1=C(O)c2ccccc2C(=O)C1=O the AC50 was 5.01 µM [rising, single point]. With CCNc1ncc2nc(-c3cccs3)c(=O)n(Cc3cccc(OC)c3)c2n1 the AC50 was 5.01 µM [rising, partial curve]. For CCOc1ccc(OCC)c(NC(=O)CSc2nc3ccccc3c(=O)n2C)c1, the AC50 was 3.98 µM [rising, full curve]. With CCOC(=O)c1sc(NC(=O)CCn2nnc3ccccc32)c(C(=O)OCC)c1C the AC50 was 2.51 µM [rising, full curve]. With NS(=O)(=O)c1ccc(CCNC(=O)COC(=O)C2CCCN2C(=O)c2cccs2)cc1 (centres undefined) the AC50 was 3.16 µM [falling, single point]. With Cc1cccc(CNc2ccnc(-c3ccoc3)n2)c1 the AC50 was 5.01 µM [rising, single point]. With CCCCn1c(NCc2ccccn2)nc2ccccc21 the AC50 was 1.58 µM [falling, partial curve]. With Cc1cc(C)c(Cn2c(=O)n(CCCC(=O)NCc3ccco3)c(=O)c3ccccc32)c(C)c1 the AC50 was 25.1 µM [rising, single point]. For COCC(=O)Nc1nnc(Cc2ccc(OC)c(OC)c2)s1, the AC50 was 12.6 µM [rising, partial curve]. In the case of CSc1nc(-c2ccccc2)nc2c1COC(C)(C)C2, the AC50 is reported as 12.6 µM [rising, single point]. In the case of O=C(c1csnn1)N1CCC[C@@]2(CCN(c3ccccn3)C2)C1, the AC50 is reported as 0.398 µM [falling, single point]. With O=C(Oc1ccccc1)N1CCC2(CC1)CN(c1ccccn1)C2 the AC50 was 12.6 µM [falling, single point]. In the case of CCCCN(C)C(=O)c1sc2ncn(CC)c(=O)c2c1C, the AC50 is reported as 5.01 µM [rising, full curve]. In the case of CC(=O)Nc1ccc(N2C(=O)CSC2c2ccc(F)cc2)cc1 (centres undefined), the AC50 is reported as 1 µM [rising, full curve]. In the case of Cc1c(C(=O)N2CCOCC2)sc2ncnc(N3CCc4ccccc4C3)c12, the AC50 is reported as 0.2 µM [rising, full curve]. With O=c1c(-c2ccc(F)cc2)nc2cnc(Nc3ccccc3)nc2n1C1CC1 the AC50 was 6.31 µM [rising, partial curve, poor fit]. For CCCn1c(CCC(=O)O)ccc1-c1ccc(F)cc1, the AC50 was 12.6 µM [rising, partial curve, poor fit]. With COc1cc(NC(=O)c2cccs2)c(C(=O)OCC(=O)NCc2ccco2)cc1OC the AC50 was 3.16 µM [rising, single point]. In the case of COc1ccc(CNc2nc3c(c(=O)n(Cc4ccc(Cl)cc4)c(=O)n3C)n2C)cc1, the AC50 is reported as 3.98 µM [falling, full curve]. With CCn1cc(C(=O)NCC2COc3ccccc3O2)c2cc(OC)c(OC)cc2c1=O (centres undefined) the AC50 was 10 µM [rising, partial curve]. For COc1ccc(CCNC(=O)c2ccco2)cc1, the AC50 was 0.00398 µM [falling, full curve]. For CCC(=O)Nc1c(OC(=O)CC)ccc2c(C)cc(=O)oc12, the AC50 was 25.1 µM [rising, single point]. In the case of COc1ccc(C(=O)Nc2ccc3c(c2)OCO3)cc1OC, the AC50 is reported as 10 µM [rising, partial curve]. For COc1ccc(NC(=O)CC2C(=O)N(c3cccc(OC)c3)C(=O)N2C2CCCCC2)cc1 (centres undefined), the AC50 was 0.0794 µM [falling, full curve, poor fit]. In the case of Cn1c(-c2ccc(F)cc2)cnc1SCC(=O)N1CCCCC1, the AC50 is reported as 25.1 µM [rising, single point]. For Cc1ccc2c(c1)cc(CN(Cc1cccs1)C(=O)c1ccco1)c1nnnn12, the AC50 was 7.94 µM [rising, partial curve]. For Cc1cc(N2CCN(c3ccccn3)CC2)n2c(nc3ccccc32)c1C#N, the AC50 was 1.58 µM [rising, full curve]. With O=c1c(-c2ccccc2)nc2cnc(N3CCNCC3)nc2n1C1CC1 the AC50 was 12.6 µM [rising, partial curve]. With Cc1c(NC(=O)c2ccccc2F)c(=O)n(-c2ccccc2)n1C the AC50 was 5.01 µM [falling, single point]. With O[C@@H]1C2CCCC1[C@]1(O)CCCCC1C2 (some centres undefined) the AC50 was 20 µM [rising, single point]. In the case of O=C(OCC1COc2ccccc2O1)c1c(F)cccc1F (centres undefined), the AC50 is reported as 1.26 µM [falling, partial curve, poor fit]. With CC(C)n1nc(C(=O)NCCc2ccc(S(N)(=O)=O)cc2)c2ccccc2c1=O the AC50 was 20 µM [rising, partial curve]. With Cc1nn(-c2ccccc2)c(Cl)c1C(=O)N1CCN(c2ncnc3c2cnn3-c2ccccc2)CC1 the AC50 was 5.01 µM [falling, full curve]. In the case of CCn1c(=O)cc(OCC(=O)N2CCN(c3cccc(C(F)(F)F)c3)CC2)c2ccccc21, the AC50 is reported as 12.6 µM [falling, partial curve]. In the case of CCN(CC)c1ccc(C2CC(=O)NC3=C2C(=O)CC(C)(C)C3)cc1 (centres undefined), the AC50 is reported as 12.6 µM [falling, partial curve]. For O=C(CSc1ccc2nnc(-c3cccnc3)n2n1)NCC1CCCO1 (centres undefined), the AC50 was 12.6 µM [rising, single point]. With O=C(c1cnn2c(C(F)F)cc(C3CC3)nc12)N1CCc2ccccc2C1 the AC50 was 10 µM [rising, single point]. With COc1ccccc1NC(=O)CSc1nnnn1-c1ccc2c(c1)OCO2 the AC50 was 10 µM [rising, single point]. With Cc1cc(-c2ccccc2)c2c3c(cn2n1)c(=O)n(C)c(=O)n3C the AC50 was 6.31 µM [rising, partial curve]. In the case of CN(C)CCCSc1ccccc1NC(=O)/C=C\c1ccccc1, the AC50 is reported as 31.6 µM [falling, single point].

Source: PubChem BioAssay AID662 (National Center for Advancing Translational Sciences (NCATS), 2007)
